Data as given in PubChem BioAssay AID686938 (Drosophila RNAi Screening Center, 2013)
In all, the deposit lists about 23,000 reagents; below is an unselected part of those that have a named target and a result. In the full data, 75 (0.33%) are marked active. 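Raw plate signals without normalisation; calls rest on plate z-scores that were not deposited; ratio present for only 364 wells.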 A number with no mark means an inactive call. Names joined by + are all predicted targets of the reagent. No sequences are given here. Not given: the dose of the treatment.

- Aim: 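Looking for CRAC channel components and the factors controlling them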 (primary screen)
- System: Drosophila S2R+ cells
- Reagents: long dsRNA against Drosophila genes, about 0.25 µg dsRNA per well, roughly 10,000 cells
- Duration: 5 days of knock-down before the calcium assay
- Challenge: thapsigargin (SERCA pump blocker) to empty calcium stores; entry signal taken 4 min after adding it
- Measurement: 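Per-well fluo-4 fluorescence in two replicates, unnormalised, measured in resting cells and 4 min after store depletion by the SERCA blocker thapsigargin; ratio of the two present in few wells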
- Direction: calcium entry signal: higher = stronger calcium signal after store depletion; resting calcium signal: higher = higher resting calcium signal
- Hit rule: 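Called when the plate z-score of the entry-to-rest ratio, mean of duplicates, falls below −3; wells with low overall dye signal (Fmax z below −2) or more than five off-targets excluded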
- Calls: active = strongly reduced calcium entry; inactive = no strong reduction

The opening 7 entries, to show the layout:
gene | DRSC id | calcium entry signal, replicate 1 (fluorescence units) | calcium entry signal, replicate 2 (fluorescence units) | resting calcium signal, replicate 1 (fluorescence units) | resting calcium signal, replicate 2 (fluorescence units)
CG32647 | DRSC19690 | 3.23e7 | 4.07e7 | 1.58e7 | 1.92e7
CG32647 | DRSC19878 | 1.64e7 | 2.28e7 | 9.77e6 | 1.25e7
CG34163 | DRSC01219 | 3.41e7 | 5.17e7 | 1.53e7 | 2.31e7
Polr3A | DRSC19766 | 2.62e7 | 2.11e7 | 1.45e7 | 1.02e7
lmgA + lmgB | DRSC03566 | 3.04e7 | 4.48e7 | 1.51e7 | 1.92e7
ric8a | DRSC18093 | 3.69e7 | 3.93e7 | 1.78e7 | 1.72e7
Sap-r | DRSC16849 | 4.78e7 | 4.69e7 | 2.02e7 | 2.30e7

The listing, from the first entry:
gene | DRSC id | calcium entry signal, replicate 1 (fluorescence units) | calcium entry signal, replicate 2 (fluorescence units) | resting calcium signal, replicate 1 (fluorescence units) | resting calcium signal, replicate 2 (fluorescence units)
CG32647 | DRSC19690 | 3.23e7 | 4.07e7 | 1.58e7 | 1.92e7
CG32647 | DRSC19878 | 1.64e7 | 2.28e7 | 9.77e6 | 1.25e7
CG34163 | DRSC01219 | 3.41e7 | 5.17e7 | 1.53e7 | 2.31e7
Polr3A | DRSC19766 | 2.62e7 | 2.11e7 | 1.45e7 | 1.02e7
lmgA + lmgB | DRSC03566 | 3.04e7 | 4.48e7 | 1.51e7 | 1.92e7
ric8a | DRSC18093 | 3.69e7 | 3.93e7 | 1.78e7 | 1.72e7
Sap-r | DRSC16849 | 4.78e7 | 4.69e7 | 2.02e7 | 2.30e7
Sap-r | DRSC21916 | 3.41e7 | 5.30e7 | 1.73e7 | 3.00e7
CG31668 | DRSC22584 | 3.79e7 | 3.69e7 | 1.97e7 | 1.56e7
CG6340 | DRSC19987 | 3.53e7 | 7.15e7 | 1.76e7 | 3.88e7
CheB38b | DRSC22874 | 4.89e7 | 3.38e7 | 2.36e7 | 1.50e7
mura | DRSC16483 | 3.16e7 | 3.18e7 | 1.54e7 | 1.57e7
mura | DRSC16484 | 1.56e7 | 1.94e7 | 1.01e7 | 1.30e7
mura | DRSC23145 | 3.32e7 | 3.92e7 | 1.75e7 | 1.85e7
CG10492 | DRSC02064 | 3.32e7 | – | 2.20e7 | –
CG13197 | DRSC06322 | 3.17e7 | 4.58e7 | 1.65e7 | 2.18e7
RNF220 | DRSC15652 | 4.65e7 | 4.40e7 | 2.20e7 | 1.95e7
jus | DRSC14861 | 2.36e7 | 3.27e7 | 1.38e7 | 1.47e7
jus | DRSC14862 | 2.45e7 | 3.19e7 | 1.29e7 | 1.52e7
jus | DRSC23018 | 5.73e7 | 3.61e7 | 2.87e7 | 1.47e7
Fign | DRSC00592 | 4.86e7 | – | 2.65e7 | –
O-fut2 | DRSC18608 | 2.16e7 | 2.43e7 | 1.09e7 | 1.35e7
Cep89 | DRSC07110 | 4.23e7 | 3.76e7 | 2.36e7 | 1.76e7
Sgs3 | DRSC11280 | 2.88e7 | 4.15e7 | 1.59e7 | 1.73e7
CG10628 | DRSC02080 | 4.57e7 | 4.13e7 | 1.81e7 | 1.80e7
SkpB | DRSC07683 | 2.00e7 | 3.82e7 | 1.04e7 | 1.58e7
rdx | DRSC14526 | 4.17e7 | 6.59e7 | 2.24e7 | 6.34e7
rdx | DRSC16580 | 3.67e7 | 5.45e7 | 1.95e7 | 5.68e7
rdx | DRSC23120 | 3.44e7 | 3.14e7 | 1.64e7 | 1.44e7
MED21 | DRSC20932 | 2.83e7 | 3.69e7 | 1.55e7 | 1.61e7
CG32473 | DRSC14352 | 2.90e7 | 5.21e7 | 1.49e7 | 7.00e7
CG32473 | DRSC16446 | 4.45e7 | 4.80e7 | 1.70e7 | 2.09e7
c(2)M | DRSC01922 | 5.67e7 | – | 2.63e7 | –
Trxr2 | DRSC11900 | 3.04e7 | 5.30e7 | 1.49e7 | 2.40e7
CG32240 | DRSC08093 | 4.05e7 | 4.42e7 | 2.19e7 | 2.13e7
CG12637 | DRSC17845 | 4.62e7 | 4.22e7 | 2.15e7 | 1.75e7
alphaSnap | DRSC11285 | 3.31e7 | 1.99e7 | 3.49e7 | 1.39e7
Topors | DRSC06531 | 2.42e7 | 1.88e7 | 1.13e7 | 1.00e7
CG42296 | DRSC00394 | 3.89e7 | 3.76e7 | 1.81e7 | 1.74e7
Ktl | DRSC14270 | 5.56e7 | 4.44e7 | 2.43e7 | 1.92e7
ush | DRSC00843 | 3.76e7 | – | 2.50e7 | –
sev | DRSC20372 | 3.41e7 | 4.56e7 | 1.66e7 | 2.08e7
VepD | DRSC22318 | 3.74e7 | 5.55e7 | 1.84e7 | 2.71e7
CG11035 | DRSC14287 | 2.54e7 | 3.70e7 | 1.14e7 | 1.83e7
Ccdc56 + mtTFB1 | DRSC10809 | 4.74e7 | 3.76e7 | 3.23e7 | 1.94e7
dx | DRSC18767 | 2.84e7 | 4.42e7 | 1.43e7 | 2.15e7
Ctr9 | DRSC08562 | 2.00e7 | 1.65e7 | 1.19e7 | 1.12e7
TP53INP | DRSC08178 | 3.78e7 | 5.30e7 | 2.62e7 | 2.52e7
TP53INP | DRSC22552 | 3.31e7 | 4.10e7 | 1.70e7 | 1.57e7
Toll-4 | DRSC03458 | 2.55e7 | 4.50e7 | 1.26e7 | 1.81e7
CG44098 | DRSC12214 | 2.90e7 | 2.81e7 | 1.50e7 | 1.36e7
CG44098 | DRSC12240 | 3.02e7 | 4.78e7 | 1.45e7 | 2.03e7
CG44098 | DRSC12327 | 3.03e7 | 4.54e7 | 1.53e7 | 2.12e7
CG13970 | DRSC02311 | 3.27e7 | 5.61e7 | 1.73e7 | 2.32e7
ck | DRSC03509 | 5.39e7 | – | 2.57e7 | –
Parp1 | DRSC07725 | 2.75e7 | 6.61e7 | 1.24e7 | 2.95e7
Parp1 | DRSC07778 | 2.97e7 | 3.24e7 | 1.59e7 | 1.42e7
Parp1 | DRSC07780 | 2.87e7 | 3.12e7 | 1.48e7 | 1.35e7
